The other results are listed elsewhere or left out.
What was measured:
Test in all cases: log2 fold change, soluble protein after heating vs DMSO (PISA); higher = thermal stabilisation; K562 cells, 10 uM, 30 min; active = over 0.2 and 3.5 SD of the protein, either way, in both replicates (recomputed)
[1] = compound: COC1=CC=C(C=C1)CN2C=CC3=C2C=C(C=C3)C(=O)NO
Procedure, shortened: (§1)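 K562 cells at 2×10^6 cells/mL were treated with 10 μM compound for 30 min. Aliquots were heated for 3 min across 48°C-58°C, pooled, and extracted in PBS with 0.5% NP-40 at 4°C; soluble protein was the supernatant after 21,000xg for 90 min. Soluble protein was quantified by TMTpro 16plex LC-MS/MS with channel sums equalised, and reported as log2 fold change in thermal stability against DMSO controls, with values from duplicates.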

Sequences of proteins named here, by UniProt entry; tags and fusion partners are left off. A change or cut given only in a name is not applied to a line headed by its entry.
UniProt P46977: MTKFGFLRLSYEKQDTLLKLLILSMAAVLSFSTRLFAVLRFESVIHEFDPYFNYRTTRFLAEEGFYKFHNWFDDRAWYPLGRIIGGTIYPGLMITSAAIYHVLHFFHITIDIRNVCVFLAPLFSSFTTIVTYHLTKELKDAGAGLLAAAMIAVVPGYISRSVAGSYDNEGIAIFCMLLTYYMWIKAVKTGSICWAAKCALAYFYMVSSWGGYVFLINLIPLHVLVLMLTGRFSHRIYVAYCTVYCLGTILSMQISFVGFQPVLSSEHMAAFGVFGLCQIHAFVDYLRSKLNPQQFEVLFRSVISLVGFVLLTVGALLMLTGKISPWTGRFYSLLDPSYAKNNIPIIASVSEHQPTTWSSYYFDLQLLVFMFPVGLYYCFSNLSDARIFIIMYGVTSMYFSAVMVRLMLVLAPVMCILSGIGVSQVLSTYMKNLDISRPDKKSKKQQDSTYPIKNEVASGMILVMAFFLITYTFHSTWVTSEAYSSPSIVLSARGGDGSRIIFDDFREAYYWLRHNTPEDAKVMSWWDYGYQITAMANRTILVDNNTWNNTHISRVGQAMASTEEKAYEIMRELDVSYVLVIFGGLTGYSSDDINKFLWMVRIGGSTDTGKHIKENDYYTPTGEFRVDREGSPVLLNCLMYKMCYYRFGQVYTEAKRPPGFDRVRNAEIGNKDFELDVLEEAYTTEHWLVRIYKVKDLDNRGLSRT
UniProt Q8NHG7: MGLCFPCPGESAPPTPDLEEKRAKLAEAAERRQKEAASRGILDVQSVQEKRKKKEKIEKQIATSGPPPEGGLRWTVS
UniProt O60499: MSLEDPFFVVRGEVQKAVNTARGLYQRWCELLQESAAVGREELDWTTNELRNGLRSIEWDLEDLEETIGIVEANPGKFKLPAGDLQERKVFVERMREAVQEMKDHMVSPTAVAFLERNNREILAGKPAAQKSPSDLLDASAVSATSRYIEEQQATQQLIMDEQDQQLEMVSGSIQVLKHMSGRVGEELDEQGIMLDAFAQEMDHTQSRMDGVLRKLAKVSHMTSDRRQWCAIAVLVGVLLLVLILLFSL
UniProt Q13148, whole entry, looked up: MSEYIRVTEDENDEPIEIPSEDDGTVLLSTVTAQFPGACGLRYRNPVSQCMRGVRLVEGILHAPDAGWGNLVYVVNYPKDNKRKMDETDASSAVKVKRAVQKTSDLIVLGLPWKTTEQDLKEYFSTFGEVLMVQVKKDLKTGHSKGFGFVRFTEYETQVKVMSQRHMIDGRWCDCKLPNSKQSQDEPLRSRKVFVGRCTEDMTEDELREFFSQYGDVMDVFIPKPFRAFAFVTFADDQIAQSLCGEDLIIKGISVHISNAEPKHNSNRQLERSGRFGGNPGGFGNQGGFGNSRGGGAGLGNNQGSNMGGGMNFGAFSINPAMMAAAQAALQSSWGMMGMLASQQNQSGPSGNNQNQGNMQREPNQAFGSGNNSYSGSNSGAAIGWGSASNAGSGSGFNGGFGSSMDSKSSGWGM
UniProt Q1ZZU3: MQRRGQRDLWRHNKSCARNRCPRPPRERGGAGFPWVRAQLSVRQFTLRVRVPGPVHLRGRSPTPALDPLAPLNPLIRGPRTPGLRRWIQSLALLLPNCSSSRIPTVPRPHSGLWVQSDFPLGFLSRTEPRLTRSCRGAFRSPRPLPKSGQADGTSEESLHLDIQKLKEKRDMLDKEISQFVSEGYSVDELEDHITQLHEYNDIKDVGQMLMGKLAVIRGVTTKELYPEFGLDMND
UniProt Q9UBS9: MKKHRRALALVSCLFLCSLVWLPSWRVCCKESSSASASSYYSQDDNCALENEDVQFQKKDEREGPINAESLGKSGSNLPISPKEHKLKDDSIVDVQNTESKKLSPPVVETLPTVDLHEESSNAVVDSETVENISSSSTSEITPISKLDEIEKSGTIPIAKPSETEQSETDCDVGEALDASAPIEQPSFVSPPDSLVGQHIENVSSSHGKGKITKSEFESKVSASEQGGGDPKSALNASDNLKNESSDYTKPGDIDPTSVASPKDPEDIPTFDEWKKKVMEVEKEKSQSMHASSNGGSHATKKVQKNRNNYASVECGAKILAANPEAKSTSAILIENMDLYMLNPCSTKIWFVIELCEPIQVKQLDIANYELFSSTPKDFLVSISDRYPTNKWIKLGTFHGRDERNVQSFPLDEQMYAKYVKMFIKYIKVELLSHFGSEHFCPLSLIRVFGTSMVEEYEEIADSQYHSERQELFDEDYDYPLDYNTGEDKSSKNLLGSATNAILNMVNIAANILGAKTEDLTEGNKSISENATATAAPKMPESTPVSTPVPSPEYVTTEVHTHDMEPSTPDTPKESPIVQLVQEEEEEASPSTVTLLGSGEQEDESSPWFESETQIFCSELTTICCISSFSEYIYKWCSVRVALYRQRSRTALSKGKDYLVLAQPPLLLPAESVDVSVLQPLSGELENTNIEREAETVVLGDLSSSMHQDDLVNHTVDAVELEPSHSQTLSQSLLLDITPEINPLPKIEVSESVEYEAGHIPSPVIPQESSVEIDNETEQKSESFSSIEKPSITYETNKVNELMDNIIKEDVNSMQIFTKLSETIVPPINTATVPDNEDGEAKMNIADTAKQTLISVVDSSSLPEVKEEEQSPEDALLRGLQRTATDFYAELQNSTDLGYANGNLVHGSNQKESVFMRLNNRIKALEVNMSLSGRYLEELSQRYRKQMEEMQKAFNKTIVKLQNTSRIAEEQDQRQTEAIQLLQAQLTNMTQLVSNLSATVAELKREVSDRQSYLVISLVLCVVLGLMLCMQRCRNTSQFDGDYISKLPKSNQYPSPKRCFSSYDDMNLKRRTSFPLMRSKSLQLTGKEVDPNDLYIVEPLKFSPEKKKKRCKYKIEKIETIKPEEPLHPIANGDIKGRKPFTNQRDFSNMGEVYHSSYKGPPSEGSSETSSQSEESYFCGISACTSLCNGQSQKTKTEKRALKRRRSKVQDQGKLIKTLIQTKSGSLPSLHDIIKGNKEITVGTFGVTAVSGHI
UniProt Q8TCJ2: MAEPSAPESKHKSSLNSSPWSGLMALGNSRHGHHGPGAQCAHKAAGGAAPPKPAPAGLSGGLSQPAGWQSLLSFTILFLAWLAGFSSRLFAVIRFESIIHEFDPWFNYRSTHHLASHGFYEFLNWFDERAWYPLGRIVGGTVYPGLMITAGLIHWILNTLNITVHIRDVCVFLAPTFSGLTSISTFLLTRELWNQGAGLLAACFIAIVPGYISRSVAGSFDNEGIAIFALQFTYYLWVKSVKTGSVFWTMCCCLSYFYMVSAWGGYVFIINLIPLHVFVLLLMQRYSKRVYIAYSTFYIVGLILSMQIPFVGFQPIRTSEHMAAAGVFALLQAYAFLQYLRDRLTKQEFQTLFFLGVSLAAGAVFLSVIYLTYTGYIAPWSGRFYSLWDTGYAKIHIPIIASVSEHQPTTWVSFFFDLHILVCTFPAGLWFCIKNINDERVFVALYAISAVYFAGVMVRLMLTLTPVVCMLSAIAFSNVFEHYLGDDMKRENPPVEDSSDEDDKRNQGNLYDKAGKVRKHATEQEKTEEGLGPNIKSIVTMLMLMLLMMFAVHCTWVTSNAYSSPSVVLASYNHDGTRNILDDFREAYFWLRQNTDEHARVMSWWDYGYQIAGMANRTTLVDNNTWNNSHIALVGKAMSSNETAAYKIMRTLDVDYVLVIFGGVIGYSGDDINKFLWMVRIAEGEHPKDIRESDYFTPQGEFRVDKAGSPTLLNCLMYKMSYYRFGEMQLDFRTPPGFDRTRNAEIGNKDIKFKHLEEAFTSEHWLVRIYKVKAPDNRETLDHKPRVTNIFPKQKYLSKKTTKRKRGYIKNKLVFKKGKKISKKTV
UniProt Q9Y5B9, whole entry, looked up: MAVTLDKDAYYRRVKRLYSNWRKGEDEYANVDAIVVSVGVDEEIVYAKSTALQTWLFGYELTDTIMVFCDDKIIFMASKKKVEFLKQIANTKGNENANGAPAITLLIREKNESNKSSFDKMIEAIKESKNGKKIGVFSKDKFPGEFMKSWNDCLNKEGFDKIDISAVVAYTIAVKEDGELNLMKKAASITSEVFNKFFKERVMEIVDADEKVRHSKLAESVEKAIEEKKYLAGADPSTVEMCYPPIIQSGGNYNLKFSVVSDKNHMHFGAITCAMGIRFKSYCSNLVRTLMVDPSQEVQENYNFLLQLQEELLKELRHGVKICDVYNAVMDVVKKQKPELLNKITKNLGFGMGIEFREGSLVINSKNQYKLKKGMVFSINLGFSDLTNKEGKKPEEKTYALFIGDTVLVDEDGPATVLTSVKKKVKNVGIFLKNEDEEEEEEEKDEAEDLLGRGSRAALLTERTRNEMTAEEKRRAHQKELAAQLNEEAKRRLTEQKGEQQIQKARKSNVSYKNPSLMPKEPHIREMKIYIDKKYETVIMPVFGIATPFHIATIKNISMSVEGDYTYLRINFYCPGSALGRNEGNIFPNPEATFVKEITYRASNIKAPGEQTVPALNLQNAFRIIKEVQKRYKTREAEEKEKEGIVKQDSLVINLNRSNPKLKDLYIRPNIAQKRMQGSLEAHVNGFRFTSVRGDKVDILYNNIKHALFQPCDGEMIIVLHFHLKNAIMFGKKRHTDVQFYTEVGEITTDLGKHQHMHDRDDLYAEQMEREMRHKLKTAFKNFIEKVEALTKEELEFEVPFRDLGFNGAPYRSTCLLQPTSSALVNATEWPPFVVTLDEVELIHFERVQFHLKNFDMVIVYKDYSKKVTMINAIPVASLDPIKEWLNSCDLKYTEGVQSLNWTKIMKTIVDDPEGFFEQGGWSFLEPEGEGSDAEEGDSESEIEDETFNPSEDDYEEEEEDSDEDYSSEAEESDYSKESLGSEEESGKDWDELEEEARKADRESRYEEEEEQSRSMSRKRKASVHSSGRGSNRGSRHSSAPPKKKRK
UniProt Q96BW9: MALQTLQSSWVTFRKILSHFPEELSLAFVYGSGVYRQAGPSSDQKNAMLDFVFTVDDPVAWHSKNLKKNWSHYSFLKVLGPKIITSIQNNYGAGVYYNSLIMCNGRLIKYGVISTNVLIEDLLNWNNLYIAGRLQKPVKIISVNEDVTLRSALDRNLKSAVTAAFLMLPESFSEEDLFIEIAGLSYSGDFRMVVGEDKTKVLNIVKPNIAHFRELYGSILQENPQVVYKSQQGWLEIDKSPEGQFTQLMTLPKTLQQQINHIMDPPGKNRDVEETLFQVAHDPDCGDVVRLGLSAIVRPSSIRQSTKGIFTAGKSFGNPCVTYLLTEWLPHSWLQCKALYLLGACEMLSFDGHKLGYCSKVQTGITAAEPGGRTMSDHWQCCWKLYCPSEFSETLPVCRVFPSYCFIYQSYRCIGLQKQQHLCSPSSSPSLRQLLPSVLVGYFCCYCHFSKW
UniProt Q93075: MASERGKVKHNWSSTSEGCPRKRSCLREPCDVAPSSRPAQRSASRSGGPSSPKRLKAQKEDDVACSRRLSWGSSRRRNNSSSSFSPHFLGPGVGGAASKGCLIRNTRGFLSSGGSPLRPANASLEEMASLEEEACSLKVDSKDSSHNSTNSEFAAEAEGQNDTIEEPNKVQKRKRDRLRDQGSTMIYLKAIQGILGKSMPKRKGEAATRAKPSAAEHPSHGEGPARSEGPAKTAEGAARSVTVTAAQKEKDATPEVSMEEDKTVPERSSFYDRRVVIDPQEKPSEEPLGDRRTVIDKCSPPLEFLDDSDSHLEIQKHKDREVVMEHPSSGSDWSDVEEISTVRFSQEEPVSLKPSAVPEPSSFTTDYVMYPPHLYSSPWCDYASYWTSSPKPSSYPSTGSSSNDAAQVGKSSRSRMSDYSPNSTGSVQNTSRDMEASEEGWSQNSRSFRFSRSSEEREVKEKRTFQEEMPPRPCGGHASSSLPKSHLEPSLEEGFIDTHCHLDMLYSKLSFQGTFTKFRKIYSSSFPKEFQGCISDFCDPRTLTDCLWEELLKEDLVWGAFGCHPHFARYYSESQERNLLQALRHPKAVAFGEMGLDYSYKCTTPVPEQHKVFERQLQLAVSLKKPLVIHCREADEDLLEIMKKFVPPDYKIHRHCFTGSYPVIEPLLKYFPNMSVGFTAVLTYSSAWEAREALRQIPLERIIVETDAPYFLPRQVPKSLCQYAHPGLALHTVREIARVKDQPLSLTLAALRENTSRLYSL
UniProt Q8NBK3: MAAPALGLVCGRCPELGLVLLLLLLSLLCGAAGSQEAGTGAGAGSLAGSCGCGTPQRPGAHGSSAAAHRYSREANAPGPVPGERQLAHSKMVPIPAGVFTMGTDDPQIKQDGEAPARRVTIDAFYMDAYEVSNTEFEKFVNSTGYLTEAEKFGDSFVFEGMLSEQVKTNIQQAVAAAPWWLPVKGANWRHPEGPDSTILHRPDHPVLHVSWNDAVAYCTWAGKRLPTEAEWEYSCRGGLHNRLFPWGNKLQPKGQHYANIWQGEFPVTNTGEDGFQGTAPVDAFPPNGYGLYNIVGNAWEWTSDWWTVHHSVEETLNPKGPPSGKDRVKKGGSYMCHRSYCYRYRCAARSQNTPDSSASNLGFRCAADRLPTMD

[2] = compound: CON(C)C(=O)N1N=C(c2cc(F)ccc2F)S[C@@]1(CCCN)c1ccccc1 [filanesib]
Procedure, shortened: as §1

[3] = compound: CO[C@H]1C[C@@H]2CC[C@@H](C)[C@@](O)(O2)C(=O)C(=O)N2CCCC[C@H]2C(=O)O[C@H]([C@H](C)C[C@@H]2CC[C@H](n3cnnn3)[C@H](OC)C2)CC(=O)[C@H](C)/C=C(\C)[C@@H](O)[C@@H](OC)C(=O)[C@H](C)C[C@H](C)/C=C/C=C/C=C/1C [zotarolimus]
Procedure, shortened: as §1

[4] = compound: COc1cc(C(=O)O)ccc1NC(=O)[C@@H]1N[C@@H](CC(C)(C)C)[C@](C#N)(c2ccc(Cl)cc2F)[C@H]1c1cccc(Cl)c1F [idasanutlin]
Procedure, shortened: as §1

[5] = compound: COc1cc(Nc2ncc3c(n2)-c2ccc(Cl)cc2C(c2c(F)cccc2OC)=NC3)ccc1C(=O)O [alisertib]
Procedure, shortened: as §1

[6] = compound: COc1cc2nc(-c3cc(F)ccc3O)nc(N[C@@H]3CNC[C@H]3C(C)(C)O)c2cc1OC
Procedure, shortened: as §1

[7] = compound: COc1cc2ncnc(Nc3ccc(F)c(Cl)c3)c2cc1OCCCN1CCOCC1 [gefitinib]
Procedure, shortened: as §1

[8] = compound: COc1cccc2cc(-c3nc([C@H]4CC[C@H](C(=O)O)CC4)n4ncnc(N)c34)[nH]c12
Procedure, shortened: as §1

[9] = compound: CS(=O)(=O)CCNCc1ccc(-c2ccc3ncnc(Nc4ccc(OCc5cccc(F)c5)c(Cl)c4)c3c2)o1 [lapatinib]
Procedure, shortened: as §1

[10] = compound: CS(=O)(=O)N1CCN(Cc2cc3nc(-c4cccc5[nH]ncc45)nc(N4CCOCC4)c3s2)CC1 [pictilisib]
Procedure, shortened: as §1

Measured: log2 fold change

STT3A (UniProt P46977)
inactive: [1] -0.096 | [2] -0.032 | [3] -0.005 | [4] -0.027 | [5] -0.036 | [6] -0.044 | [7] -0.003 | [8] -0.006 | [9] 0.03 | [10] 0.011

SVIP (UniProt Q8NHG7)
inactive: [1] -0.04 | [2] 0.064 | [3] 0.043 | [4] -0.02 | [5] -0.038 | [6] 0.083 | [7] 0.031 | [8] 0.085 | [9] -0.1 | [10] 0.032

STX7 (UniProt O15400)
inactive: [1] 0.065 | [2] -0.071 | [3] 0.027 | [4] -0.023 | [5] -0.048 | [6] 0.013 | [7] -0.01 | [8] 0.045 | [9] -0.002 | [10] -0.118

TACC3 (UniProt Q9Y6A5)
inactive: [1] 0.02 | [2] 0.002 | [3] 0.004 | [4] -0.023 | [5] -0.048 | [6] 0.041 | [7] -0.004 | [8] -0.009 | [9] -0.039 | [10] 0.082

SUCLA2 (UniProt Q9P2R7)
inactive: [1] -0.004 | [2] -0.096 | [3] 0.01 | [4] -0.074 | [5] 0.104 | [6] 0.093 | [7] 0.022 | [8] 0.018 | [9] -0.05 | [10] 0.109

STX10 (UniProt O60499)
inactive: [1] 0.193 | [2] 0.013 | [3] 0.011 | [4] -0.112 | [5] -0.157 | [6] 0.01 | [7] 0.008 | [8] 0.091 | [9] -0.058 | [10] 0.024

TAF9B (UniProt Q9HBM6)
inactive: [1] -0.281 | [2] -0.004 | [3] 0.025 | [5] -0.534 | [6] -0.026 | [8] -0.193 | [9] -0.042 | [10] -0.037

SYNJ2BP-COX16, A0A087WYV9
inactive: [1] -0.078 | [2] 0.003 | [3] -0.042 | [4] 0.064 | [5] 0.002 | [6] -0.007 | [7] -0.01 | [8] 0.033 | [9] 0.033 | [10] 0.067

STX17 (UniProt P56962)
inactive: [1] 0.023 | [2] 0.013 | [3] 0.046 | [4] -0.027 | [5] -0.12 | [6] -0.081 | [7] 0.027 | [8] -0.001 | [9] 0.039 | [10] 0.093

TAPT1 (UniProt Q6NXT6)
inactive: [1] -0.058 | [2] 0.011 | [3] -0.023 | [4] -0.033 | [5] -0.066 | [6] -0.042 | [7] 0.029 | [8] 0.062 | [9] -0.029 | [10] 0.024

TAF10 (UniProt Q12962)
inactive: [1] 0.021 | [2] 0.014 | [3] -0.01 | [4] -0.03 | [5] -0.114 | [6] -0.086 | [7] 0.003 | [8] -0.027 | [9] 0.016 | [10] 0.04

TARDBP (UniProt Q13148)
inactive: [1] -0.156 | [2] 0.189 | [3] 0.009 | [4] 0.221 | [5] 0.054 | [6] -0.081 | [7] 0.042 | [8] -0.24 | [9] 0.105 | [10] -0.029

SWI5 (UniProt Q1ZZU3)
inactive: [1] -0.033 | [2] 0.032 | [3] 0.033 | [4] -0.318 | [6] 0.057 | [7] -0.029 | [9] -0.019 | [10] -0.077

Five consecutive entries from above, for reference:
TAF9B (UniProt Q9HBM6)
inactive: [1] -0.281 | [2] -0.004 | [3] 0.025 | [5] -0.534 | [6] -0.026 | [8] -0.193 | [9] -0.042 | [10] -0.037

SYNJ2BP-COX16, A0A087WYV9
inactive: [1] -0.078 | [2] 0.003 | [3] -0.042 | [4] 0.064 | [5] 0.002 | [6] -0.007 | [7] -0.01 | [8] 0.033 | [9] 0.033 | [10] 0.067

STX17 (UniProt P56962)
inactive: [1] 0.023 | [2] 0.013 | [3] 0.046 | [4] -0.027 | [5] -0.12 | [6] -0.081 | [7] 0.027 | [8] -0.001 | [9] 0.039 | [10] 0.093

TAPT1 (UniProt Q6NXT6)
inactive: [1] -0.058 | [2] 0.011 | [3] -0.023 | [4] -0.033 | [5] -0.066 | [6] -0.042 | [7] 0.029 | [8] 0.062 | [9] -0.029 | [10] 0.024

TAF10 (UniProt Q12962)
inactive: [1] 0.021 | [2] 0.014 | [3] -0.01 | [4] -0.03 | [5] -0.114 | [6] -0.086 | [7] 0.003 | [8] -0.027 | [9] 0.016 | [10] 0.04

Next part:

SUCO (UniProt Q9UBS9)
inactive: [1] 0.029 | [2] 0.107 | [3] 0.21 | [4] 0.003 | [5] -0.294 | [6] 0.231 | [8] -0.127 | [9] 0.029 | [10] 0.075

STT3B (UniProt Q8TCJ2)
inactive: [1] -0.063 | [2] 0.028 | [3] -0.003 | [4] 0.027 | [5] -0.019 | [6] -0.022 | [7] -0.005 | [8] -0.01 | [9] 0.063 | [10] -0.058

SYNE1 (UniProt Q8NF91)
inactive: [1] 0.316 | [2] -0.079 | [3] 0.019 | [4] -0.029 | [5] 0.002 | [7] 0.049 | [8] 0.084 | [10] 0.187

SUPT16H (UniProt Q9Y5B9)
inactive: [1] 0.106 | [2] -0.026 | [3] 0.104 | [4] -0.057 | [5] 0.12 | [6] -0.036 | [7] 0.062 | [8] -0.023 | [9] 0.035 | [10] 0.011

TAMM41 isoform 3 (UniProt Q96BW9)
inactive: [1] -0.027 | [2] -0.09 | [3] -0.009 | [4] -0.122 | [5] 0.019 | [6] -0.169 | [7] -0.025 | [8] 0.112 | [9] 0.021 | [10] 0.027

TATDN2 (UniProt Q93075)
inactive: [1] -0.011 | [2] 0.002 | [3] 0.006 | [4] 0.012 | [6] -0.015 | [7] -0.037 | [9] 0.021 | [10] -0.016

SUPT6H (UniProt Q7KZ85)
inactive: [1] 0.088 | [2] -0.035 | [3] -0.081 | [4] -0.07 | [5] 0.203 | [6] 0.066 | [7] -0.122 | [8] -0.12 | [9] -0.136 | [10] -0.028

SUGP2 (UniProt Q8IX01)
inactive: [2] -0.06 | [7] 0.083

SUMF1 isoform 3 (UniProt Q8NBK3)
inactive: [1] 0.066 | [2] -0.007 | [4] 0.051 | [5] -0.051 | [6] 0.035 | [7] -0.141 | [8] 0.041 | [9] 0.015 | [10] -0.02

Reference: the supplement of paper PMC10849652
